For seven substances, binding results are on record in paper doi:10.1101/2024.08.24.609485.

Results are given in words; binding and its absence hold for the method and conditions named. Binding seen in cells or lysates may run through a third protein. For some assays here: Binding can be weak; no strength is given. Where a sequence is shown, tags or fusion partners need not be part of it.

One experiment deals with T1, GFP-ARHGAP12a (UniProt Q8IWW6).
T1 sequence: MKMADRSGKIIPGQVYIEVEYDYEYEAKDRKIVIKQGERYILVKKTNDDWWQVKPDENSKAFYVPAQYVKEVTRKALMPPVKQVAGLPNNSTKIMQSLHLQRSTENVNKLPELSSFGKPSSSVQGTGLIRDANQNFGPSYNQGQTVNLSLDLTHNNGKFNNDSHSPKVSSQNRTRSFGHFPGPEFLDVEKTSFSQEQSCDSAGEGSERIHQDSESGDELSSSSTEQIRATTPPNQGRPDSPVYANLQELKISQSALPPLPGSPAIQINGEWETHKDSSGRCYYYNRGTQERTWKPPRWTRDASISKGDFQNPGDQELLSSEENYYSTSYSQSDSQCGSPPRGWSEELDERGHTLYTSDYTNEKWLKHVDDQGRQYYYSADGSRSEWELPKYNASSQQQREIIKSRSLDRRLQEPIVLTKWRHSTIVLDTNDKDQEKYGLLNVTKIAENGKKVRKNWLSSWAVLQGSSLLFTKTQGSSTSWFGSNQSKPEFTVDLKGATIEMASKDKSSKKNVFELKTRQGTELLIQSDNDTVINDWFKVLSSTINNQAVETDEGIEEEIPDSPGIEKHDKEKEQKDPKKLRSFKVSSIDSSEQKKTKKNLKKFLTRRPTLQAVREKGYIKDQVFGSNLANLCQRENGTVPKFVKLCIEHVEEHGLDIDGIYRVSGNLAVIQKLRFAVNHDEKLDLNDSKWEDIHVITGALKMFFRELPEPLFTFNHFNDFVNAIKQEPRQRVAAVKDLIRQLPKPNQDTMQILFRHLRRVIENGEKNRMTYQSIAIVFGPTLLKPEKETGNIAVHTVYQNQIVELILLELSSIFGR
Description: co-IP.

The target of the next experiment is T2, GST-SH3 (UniProt Q8IWW6).
T2 sequence: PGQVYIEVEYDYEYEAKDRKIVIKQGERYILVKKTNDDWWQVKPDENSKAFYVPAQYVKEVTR
Description: pull-down.

Experiment [1] has as its target T3, APEX2-EGFP fusion protein of ZO-3 (UniProt O95049).
T3 sequence: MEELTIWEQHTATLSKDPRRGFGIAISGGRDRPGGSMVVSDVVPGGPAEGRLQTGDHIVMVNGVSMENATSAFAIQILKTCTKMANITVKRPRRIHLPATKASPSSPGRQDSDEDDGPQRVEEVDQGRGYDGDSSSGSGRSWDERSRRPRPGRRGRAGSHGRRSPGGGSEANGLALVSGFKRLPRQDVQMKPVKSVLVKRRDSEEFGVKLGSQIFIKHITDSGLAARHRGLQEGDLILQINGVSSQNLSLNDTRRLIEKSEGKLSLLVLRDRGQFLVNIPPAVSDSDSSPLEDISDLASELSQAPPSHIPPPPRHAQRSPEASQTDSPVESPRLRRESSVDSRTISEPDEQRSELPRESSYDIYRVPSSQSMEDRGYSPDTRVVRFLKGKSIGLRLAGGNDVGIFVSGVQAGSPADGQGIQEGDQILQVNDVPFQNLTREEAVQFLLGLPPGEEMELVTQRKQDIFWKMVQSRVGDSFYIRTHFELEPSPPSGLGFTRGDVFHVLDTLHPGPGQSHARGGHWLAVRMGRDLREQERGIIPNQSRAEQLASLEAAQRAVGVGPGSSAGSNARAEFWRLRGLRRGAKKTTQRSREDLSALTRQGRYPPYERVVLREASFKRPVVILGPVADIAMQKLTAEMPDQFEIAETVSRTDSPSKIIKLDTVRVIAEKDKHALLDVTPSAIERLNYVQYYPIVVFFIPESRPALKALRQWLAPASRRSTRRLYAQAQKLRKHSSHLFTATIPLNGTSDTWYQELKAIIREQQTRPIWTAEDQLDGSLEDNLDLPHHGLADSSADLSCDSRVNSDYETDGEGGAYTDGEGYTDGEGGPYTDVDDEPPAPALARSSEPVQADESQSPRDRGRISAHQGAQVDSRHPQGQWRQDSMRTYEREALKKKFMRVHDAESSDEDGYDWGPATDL
As to the kind of experiment: co-IP.

TIAM1 (endogenous, MDCK-II): in the experiment with GFP-ARHGAP12a, the binding result is given as “no binding”.

N-WASP (endogenous, MDCK-II): the binding result with GST-SH3 and with GFP-ARHGAP12a was “binds” each time.

Consider Par3 (endogenous, MDCK-II), for which the binding result in the experiment with GFP-ARHGAP12a was “no binding”.

Consider TRIP10/CIP4 (endogenous, MDCK-II), for which the binding entry with GFP-ARHGAP12a is on record as “no binding”.

As to IRSp53 (endogenous, MDCK-II), the binding entry with GFP-ARHGAP12a is given as “no binding”.

For TOCA-1 (endogenous, MDCK-II), the binding result in the experiment with GFP-ARHGAP12a is “no binding”.

Consider ARHGAP12 (endogenous, MDCK-II), for which the binding entry in experiment [1] is “no binding”.
